The list shows a part of the results. The main result of the screen is listed elsewhere. These columns were measured beside it and carry no call. The list favours compounds with an active or inconclusive main result. The note in brackets gives the kind of curve behind each potency; many fits are weak.
Assay: qHTS Assay for Lipid Storage Modulators in Drosophila S3 Cells;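 as to cell number change: cells counted by Cell Tracker Red CMTPX staining in the red channel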
Settings: BODIPY lipid droplet fluorescence, 18-24 h; for cell number change: measured here: cell count max response, cells fed with added oleic acid
Method in brief: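 Drosophila S3 cells got compounds at several concentrations plus oleic acid (400 uM solution). Laser-scanning cytometry with 488 nm excitation read lipid droplets at 500-530 nm and cells at 575-640 nm. Percent activity was relative to 20 uM Triacsin C.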

[1] = measured here: cell number channel AC50, cells fed with added oleic acid
[2] = measured here: lipid fluorescence (Fed channel) AC50, cells fed with added oleic acid

Row | SMILES | cell number change | AC50 [1] | AC50 [2]
1 | O=C(Cn1nc(-c2ccc(F)cc2)ccc1=O)Nc1ccc(C(=O)NC2CC2)cc1 | 4.73% | 1.3 µM [rising, full curve] | 1.16 µM [rising, full curve]
2 | CC1CN/C(=C\C(=O)c2ccc(Br)cc2)C(=O)N1 (stereo unspecified) | -1.39% | – | 2.06 µM [rising, single point]
3 | O=C(Nc1cc(Cl)cc(Cl)c1)N1CCN(C(=O)C2CCCO2)CC1 (stereo unspecified) | 34.1% | 29.1 µM [rising, partial curve] | 1.84 µM [rising, partial curve, poor fit]
4 | COc1ccc(Cc2nnc(NC(=O)c3c(-c4ccccc4)noc3C)s2)cc1OC | 4.38% | – | 20.6 µM [rising, partial curve]
5 | CN1CCN(CCCNC(=O)c2cn(C3CCCCC3)c(=O)c3c2c2ccccc2n3C)CC1 | -14% | – | 0.116 µM [falling, partial curve, poor fit]
6 | O=C(CCC1CCCN(C(=O)c2ccoc2)C1)NCc1ccccc1F (stereo unspecified) | -32.3% | 1.3 µM [falling, full curve, poor fit] | 1.46 µM [falling, full curve]
7 | Cc1nc2ccccc2c2oc(C(=O)N3CCN(C(=O)c4ccco4)CC3)cc12 | -2.94% | – | 29.1 µM [falling, single point]
8 | Cc1cc2ccccc2n1CCNC(=O)C1CCCCC1 | 40.7% | 18.4 µM [rising, single point] | –
9 | O=C1CCCC/C1=C/Nc1ccc(C(=O)O)cc1 | 1.03% | – | –
10 | CCOc1ccccc1CN1CCNC(=O)C1CC(=O)NCc1cc(C)n(C)n1 (stereo unspecified) | -30.7% | 20.6 µM [falling, single point] | 0.58 µM [falling, single point]
11 | O=C(CN1C(=O)C2CC=CCC2C1=O)Nc1ccccc1N1CCCC1 (stereo unspecified) | – | 1.84 µM [rising, partial curve, poor fit] | –
12 | COc1ccc(C(C)=O)cc1COc1ccccc1[N+](=O)[O-] | 46.8% | – | 0.116 µM [falling, full curve, poor fit]
13 | Cc1ccc(C)c(S(=O)(=O)N2CCN(C(=O)c3sccc3C)CC2)c1 | 80.7% | 8.2 µM [rising, partial curve] | –
14 | O=C(O)CN(CCO)CCN(CC(=O)O)CC(=O)O | -23.9% | – | 13 µM [falling, single point]
15 | N#C/C(=N\Nc1ccc(Cl)cc1)C(=O)c1ccccc1 | -41.2% | 32.6 µM [falling, single point] | –
16 | CN1C(=O)/C(=C\c2ccccc2F)Sc2ccc(C(=O)NC3CCN(Cc4ccccc4)CC3)cc21 | -17.6% | 0.103 µM [rising, full curve] | –
17 | Cc1ccc2c(c1)N(CC(=O)NC1CCCC1)C(=O)CO2 | 27.6% | – | –
18 | Cc1onc(-c2ccccc2)c1C(=O)N1CCN(c2ncccc2C(F)(F)F)CC1 | 3.79% | – | –
19 | c1ccc(OCCCCn2cnc3ccccc32)cc1 | -39.3% | 29.1 µM [falling, single point] | –
20 | COc1ccc(CC(=O)OCC(=O)N2CCN(S(=O)(=O)c3ccc(C)cc3C)CC2)cc1 | -66.3% | 29.1 µM [falling, single point] | 3.26 µM [falling, partial curve]

Row | SMILES | cell number change | AC50 [1] | AC50 [2]
21 | COc1ccc(-c2noc(CCCC(=O)N3CCOCC3)n2)cc1 | 23.1% | – | –
22 | COC(=O)c1cc(NC(=O)c2cccc(F)c2)cc(C(=O)OC)c1 | 49.7% | 10.3 µM [rising, partial curve, poor fit] | –
23 | COc1ccc(C(=O)NC(Nc2ccc(C)cc2)C(Cl)(Cl)Cl)cc1 (stereo unspecified) | -30.2% | 18.4 µM [falling, single point] | 20.6 µM [falling, partial curve, poor fit]
24 | CCOc1ccc(C(=O)C[n+]2cccc3cc(C)ccc32)cc1 | -18.1% | – | 2.31 µM [falling, partial curve, poor fit]
25 | Cc1ccc(N(Cc2ccccc2)C(=O)CN2C(=O)NC3(CCCC3)C2=O)cc1 | 5.6% | – | –
26 | Cc1nc2ccccc2n1S(=O)(=O)c1ccc(Br)cc1 | 17.1% | – | 8.2 µM [rising, partial curve]
27 | CCn1c(C)nc2cc(C(=O)NNC(=S)Nc3ccccc3)ccc21 | -0.637% | – | 0.00461 µM [rising, full curve, poor fit]
28 | Cc1cccc(OCC(O)Cn2c(-n3nc(C)cc3C)nc3c2c(=O)[nH]c(=O)n3C)c1 (stereo unspecified) | -0.495% | – | 1.16 µM [rising, full curve, poor fit]
29 | O=S(=O)(c1ccc(Cl)cc1)N1CCSC1c1ccco1 (stereo unspecified) | -6.28% | – | –
30 | CCN(C(=O)COC(=O)c1cccnc1Nc1ccccc1F)C1CCS(=O)(=O)C1 (stereo unspecified) | 23.3% | – | 29.1 µM [rising, single point]
31 | CN1C(=O)c2ccccc2N(C)C1c1ccc(F)cc1 (stereo unspecified) | 21.4% | – | 29.1 µM [rising, single point]
32 | C[C@@H](O)[C@@H]1NC(=O)c2cc([N+](=O)[O-])cc(I)c2NCC[C@@H](C(N)=O)NC(=O)CNC1=O | 30.1% | 29.1 µM [rising, single point] | –
33 | COc1ccc(NC(=O)c2ccc3nc(C)sc3c2)cc1 | -5.77% | – | 29.1 µM [falling, single point]
34 | COc1ccc(NC(=O)c2cc3n(n2)C(C(F)(F)F)CC(c2ccc(OC)cc2)N3)cc1 (stereo unspecified) | – | – | 18.4 µM [rising, partial curve, poor fit]
35 | Cc1cc(C)n(-c2nnc(C)n2/N=C/c2ccccc2OCc2ccccc2Cl)n1 | 36.3% | 29.1 µM [rising, single point] | 29.1 µM [rising, single point]
36 | CCc1ccc(C(CNC(=O)c2ccc3c(=O)n(-c4ccccc4F)c(=S)[nH]c3c2)N(C)C)cc1 (stereo unspecified) | 9.28% | – | 0.58 µM [falling, single point]
37 | CC(C)CCC(CC(C)O)C(=O)NNC(=S)Nc1ccccc1 (stereo unspecified) | 14.2% | – | –
38 | CCS(=O)(=O)N1CCCC(C(=O)NCCCN(C)Cc2ccccc2)C1 (stereo unspecified) | -165% | 18.4 µM [falling, single point] | 29.1 µM [falling, single point]
39 | Cc1nn(-c2ccccc2)c2nc(-c3ccco3)cc(C(=O)O)c12 | 3.86% | – | 2.59 µM [falling, full curve]
40 | CCN1CCN(c2nc(Nc3ccccc3)nc(N)c2[N+](=O)[O-])CC1 | -12.8% | 0.0058 µM [falling, full curve, poor fit] | –

Taken from above:
For cell number change, CCN(C(=O)COC(=O)c1cccnc1Nc1ccccc1F)C1CCS(=O)(=O)C1 (stereo unspecified) reads 23.3%
For AC50 [1], C[C@@H](O)[C@@H]1NC(=O)c2cc([N+](=O)[O-])cc(I)c2NCC[C@@H](C(N)=O)NC(=O)CNC1=O reads 29.1 µM [rising, single point]
For AC50 [2], COc1ccc(NC(=O)c2cc3n(n2)C(C(F)(F)F)CC(c2ccc(OC)cc2)N3)cc1 (stereo unspecified) reads 18.4 µM [rising, partial curve, poor fit]

Additional structures.

Row | SMILES | cell number change | AC50 [1] | AC50 [2]
41 | Cc1ccc(N(CC(=O)NC2CCCC2)C(=O)c2ccc(C)s2)cc1 | -5.19% | – | 16.4 µM [falling, single point]
42 | COc1ccc(CCN2C(=O)C3C4CC(C5C(C(=O)O)=NOC45)C3C2=O)cc1OC (stereo unspecified) | -26.1% | – | –
43 | C=CCn1c(=O)[nH]c2cc(C(=O)N3CCN(c4cc(C)ccc4C)CC3)ccc2c1=O | – | – | 6.51 µM [falling, single point]
44 | CCCCC(=Nc1ccccc1OC)C1=C(O)CC(c2ccccc2)CC1=O (stereo unspecified) | – | – | 1.16 µM [rising, full curve]
45 | COc1ccc(Cl)cc1NC(=O)c1cc(-c2ccccc2)on1 | 6.2% | 0.206 µM [rising, full curve, poor fit] | –
46 | CC(=O)c1cccc(NC(=O)CSc2ncc(C(=O)Nc3ccccc3)c(=O)n2C)c1 | – | 6.51 µM [falling, single point] | –
47 | CC(C)(C)C(=O)Nc1ccc(C(=O)NNC(=O)c2ccccc2)cc1 | -13.2% | – | –
48 | Cc1cc(C(=O)NNC(=S)Nc2ccccc2)nn1C | -58.6% | 29.1 µM [falling, single point] | –
49 | O=C(OCC(=O)N1CCCC1=O)c1ncc(Cl)c(Cl)c1Cl | 77% | 10.3 µM [rising, partial curve] | –
50 | CCCCc1nc(NCCN2CCOCC2)c(C#N)c2c1COC(C)(C)C2 | -28.9% | – | 0.00461 µM [falling, full curve, poor fit]
51 | O=c1cc(O)nc(SC23CC4CC(CC(C4)C2)C3)[nH]1 | -6.12% | – | 8.2 µM [falling, partial curve]
52 | CC1CCCC(NCC(=O)Nc2ccc(C(N)=O)cc2)C1C (stereo unspecified) | 66.8% | – | 3.66 µM [rising, full curve]
53 | CCOC(=O)c1cc(CC)sc1NC(=O)CN1CCN(C(=O)c2ccco2)CC1 | -19.4% | – | 29.1 µM [falling, partial curve, poor fit]
54 | CCOc1ccc(-n2c(SCC(=O)Nc3ccc(Br)cc3)nc3n[nH]c(C)c3c2=N)cc1 | -67% | 18.4 µM [falling, single point] | 20.6 µM [falling, single point]
55 | C=CCOc1ccc(/C(CC)=N/O)c(OC)c1 | 5.08% | – | 16.4 µM [rising, single point]
56 | CCn1ccnc1CN1CCc2c([nH]c3ccccc23)C1C1CCCCC1 (stereo unspecified) | -35.8% | 29.1 µM [falling, single point] | 18.4 µM [falling, single point]
57 | O=C(NCc1ccc(Cl)cc1)C(=O)NCC1OCCN1S(=O)(=O)c1ccc2c(c1)OCCO2 (stereo unspecified) | 28.1% | – | 1.64 µM [rising, partial curve]
58 | Cc1ccc(S(=O)(=O)NCc2nc3ccccc3[nH]2)cc1 | 9.73% | – | 0.0058 µM [rising, full curve, poor fit]
59 | O=C1C2CCCN2C(c2ccc(F)c(F)c2)N1c1cccc(Cl)c1 (stereo unspecified) | 24.3% | – | –
60 | COc1ccc(NCC(=O)Nc2ccc(C#N)cc2)cc1Cl | -17.7% | 1.3 µM [rising, partial curve] | 0.58 µM [rising, single point]

Part of the list above, in CSV form.
Row,SMILES,cell number change,AC50 [1],AC50 [2]
44,CCCCC(=Nc1ccccc1OC)C1=C(O)CC(c2ccccc2)CC1=O (stereo unspecified),–,–,"1.16 µM [rising, full curve]"
45,COc1ccc(Cl)cc1NC(=O)c1cc(-c2ccccc2)on1,6.2%,"0.206 µM [rising, full curve, poor fit]",–

— PubChem BioAssay AID2685 (National Center for Advancing Translational Sciences (NCATS), 2010)
